Results deposited as PubChem BioAssay AID686943 (Drosophila RNAi Screening Center, 2013).
Purpose: 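Search across the genome for regulators of signalling from receptor tyrosine kinase to ERK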 (primary screen). Cell system: Drosophila S2R+ haemocyte-like cells expressing YFP-tagged ERK (Rolled). Reagent: long dsRNA against Drosophila genes. Challenge: insulin stimulation versus unstimulated cells; dose and duration not given. Measurement: 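Per-plate z-scores of phospho-ERK immunostaining normalised to YFP-tagged ERK, measured with and without insulin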. Scale: replicate 1, z-score of dpERK with insulin: higher = more active ERK per ERK-YFP after insulin.
The deposit covers about 23,000 reagents; shown is a random part of those with a known target gene and a result. 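Extra replicates exist only for a retested subset of genes; insulin dose and duration not given; both raised and lowered dpERK matter.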 Not all columns of the deposit are shown. The record does not give: the amount of reagent, the time to read-out.

Lip4 [DRSC02930] → replicate 1, z-score of dpERK with insulin: 0.37
Mpcp1 [DRSC07337] → replicate 1, z-score of dpERK with insulin: 0.14
Arms [DRSC03856] → replicate 1, z-score of dpERK with insulin: -0.23
Arms [DRSC03857] → replicate 1, z-score of dpERK with insulin: 0
Arms [DRSC04052] → replicate 1, z-score of dpERK with insulin: 0.54
Arms [DRSC04256] → replicate 1, z-score of dpERK with insulin: -6.7
pHCl-2 [DRSC14306] → replicate 1, z-score of dpERK with insulin: 1.41
CG11586 [DRSC08203] → replicate 1, z-score of dpERK with insulin: -0.45
APC7 [DRSC17937] → replicate 1, z-score of dpERK with insulin: 0.62
aph-1 [DRSC00547] → replicate 1, z-score of dpERK with insulin: -1.03
CG12857 [DRSC06197] → replicate 1, z-score of dpERK with insulin: 0.64
TyrRS-m [DRSC04286] → replicate 1, z-score of dpERK with insulin: -0.37
Vps24 [DRSC12332] → replicate 1, z-score of dpERK with insulin: -0.28
mthl10 [DRSC08504] → replicate 1, z-score of dpERK with insulin: -0.83
mthl10 [DRSC08505] → replicate 1, z-score of dpERK with insulin: 1.2
CG15096 [DRSC06525] → replicate 1, z-score of dpERK with insulin: 0.6
Ir84a [DRSC12510] → replicate 1, z-score of dpERK with insulin: -0.28
betaCOP [DRSC20312] → replicate 1, z-score of dpERK with insulin: 2.23
Obp69a [DRSC11247] → replicate 1, z-score of dpERK with insulin: 0.25
CG30053 [DRSC07260] → replicate 1, z-score of dpERK with insulin: 0.22
CG33494 [DRSC13715] → replicate 1, z-score of dpERK with insulin: -1.05
Tdrd3 [DRSC10016] → replicate 1, z-score of dpERK with insulin: -0.27
CG15533 [DRSC15069] → replicate 1, z-score of dpERK with insulin: 0.1
CG34327 [DRSC19517] → replicate 1, z-score of dpERK with insulin: 0.18
CG34327 [DRSC22380] → replicate 1, z-score of dpERK with insulin: -2.93
CG8230 [DRSC05931] → replicate 1, z-score of dpERK with insulin: -0.63
CG31998 [DRSC17137] → replicate 1, z-score of dpERK with insulin: 0.48
CG31998 [DRSC17138] → replicate 1, z-score of dpERK with insulin: 0.06
CG10949 [DRSC02112] → replicate 1, z-score of dpERK with insulin: 0.89
gukh [DRSC14768] → replicate 1, z-score of dpERK with insulin: 0.14
gukh [DRSC15806] → replicate 1, z-score of dpERK with insulin: 0.31
gukh [DRSC15944] → replicate 1, z-score of dpERK with insulin: 0.1

Copied from the entries so far, 4 entries:
aph-1 [DRSC00547] → replicate 1, z-score of dpERK with insulin: -1.03
CG12857 [DRSC06197] → replicate 1, z-score of dpERK with insulin: 0.64
TyrRS-m [DRSC04286] → replicate 1, z-score of dpERK with insulin: -0.37
Vps24 [DRSC12332] → replicate 1, z-score of dpERK with insulin: -0.28
